Patent publication US20180237526A1
These are yes or no findings as the source states them, for the method shown. Some binding calls cover weakened binding; strength is not graded here.

Biological target: T1, MICA (MHC class I chain-related molecule A) on TRAMP-C2-MICA cells (human) (UniProt Q29983)
T1 sequence (looked up): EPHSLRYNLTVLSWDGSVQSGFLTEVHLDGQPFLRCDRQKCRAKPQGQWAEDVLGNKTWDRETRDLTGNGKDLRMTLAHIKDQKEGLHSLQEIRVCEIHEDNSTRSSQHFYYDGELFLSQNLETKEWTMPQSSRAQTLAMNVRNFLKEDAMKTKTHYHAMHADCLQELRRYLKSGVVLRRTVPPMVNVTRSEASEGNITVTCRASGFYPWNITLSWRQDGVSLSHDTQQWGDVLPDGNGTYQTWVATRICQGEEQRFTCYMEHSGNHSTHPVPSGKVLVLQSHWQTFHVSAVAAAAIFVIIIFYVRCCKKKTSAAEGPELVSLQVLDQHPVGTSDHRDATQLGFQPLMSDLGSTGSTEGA
Assay: flow cytometry on TRAMP-C2 cells transfected with MICA

binding: binds
B1: scFv-H9 (scFv)
scFv: MAQVQLQQSGAELVKPGASVKLSCKTSGYTFSNYYMSWLKQMPGQNIEWIGNIYGGNGGTGYNQKFKGKATLTVDKSSSTAYMQLSSLTSEDSAVYFCARGDLYAMDYWGQGTTVTVSSGGGGSGGGGSGGGGSDIVLTQSPSSMSASLGDRVTITCQASQDIGNNLIWFQQKPGKSPRPMIYYATNLANGVPSRFSGSGSGTSYSLTISSMEAEDAATYYCQQWSSNPYTFGGGTKLEIKRAAA
